Measured values from patent EP0557936A1, “Amidic derivatives of (R)-glycerophosphoryl-(S)-serine or of its diacyl derivative, process for their preparation and relative pharmaceutical compositions for the improvement of the learning processes” (MAGIS FARMACEUTICI S.p.A., priority 1992, dated 1993).

Test system: scopolamine induced amnesy
Assay: passive avoidance test, scopolamine induced amnesia (intraperitoneal administration)
Assay type: in vivo, rat
Details: scopolamine 1 mg/kg, 10 rats
Experimental: The antiamnesic activity was tested by means of the classical passive avoidance test, with respect to the amnesy induced in the rat, by administration of scopolamine, or by means of electroconvulsive shock (ECS).For both the tests a shuttle-box was used of the Ugo Basile Company (Comerio, Varese), consisting of two compartments, one of which compartments was clear and the other one dark and fitted with an electrifiable floor.
In order to induce a passive avoidance response, the animal was placed onto a runner of the clear compartment, enlightened by a 60 watt lamp, for a 1 minute acclimatisation, whereafter a bulkhead was opened putting the runner in communication with the dark compartment, which the animal istinctively entered after a latency of a few seconds. The bulkhead was immediately shut and the animal got a 0.21 mA current for 2 second through the electrifiable floor. The animal was then removed and newly subjected to the test 24 h later, in order to verify the retention level of the acquired response of passive avoidance, measuring the latency required by the entry into the electrifiable compartment, with an end-point of 300 second.
All the tests were carried out under conditions of stratified randomization, using in each test session the same number of animals for the different experimental groups tested in parallel, and comprising, besides the groups treated with the product under test (test substances and reference substances having known activity), two separate groups of controls and precisely: blank controls (animals treated with placebo) and deconditioned controls (animals treated with placebo and subjected to amnesic treatment by means of scopolamine or of ECS).
The results obtained with the different dosages of the products subjected to screening and with the corresponding reference standards having a known activity, namely N(S)-3-(formyl-amino)-epsilon-caprolactam, N(4-phenylbutanoyl-hydroxy)prolyl-pyrrolidine and glycerophosphoryl-serine, were expressed as a percentage of antagonism of the amnesy (AA), defined according to the following formula: [formula] wherein the index of comparison IC, concerning treated animals (t) and blank controls (b), is defined by the formula: [formula] wherein: Nm = number of animals belonging to group m (blanks or treated animals); Nn = number of animals belonging to group n (deconditioned animals); Amn = binary function which can assume only the values +1, zero or - 1, depending on the fact that the latency time (seconds) of an animal of the m group (xm) be respectively higher than, equal to or lower than the latency time (seconds) of an animal of the n group (xn).
The summation Σ Amn i extended to all the pairs obtained combining each xm term with each xn term.
Normally the comparison index (IC) between blank controls and deconditioned controls is between 60% and 80% and the test was discarded when such index resulted to be lower than 40%.
The utilized rats were male C.r.l.: CD (50) BR (Charles River Italia), showing a weight of 150-170 g, after an acclimatisation time of a week, under standard conditions.
The animals got the products to be tested by intraperitoneal way and scopolamine bromhydrate (1 mg/kg) by subcutaneous way, respectively 45 and 30 minutes before being subjected to the previously described avoidance test.
As to the standard substances [GFS, N(S)-3-(formylamino)-epsilon-caprolactam and N(4-phenylbutanoylhydroxy)prolyl-pyrrolidine], the used dosage was 4x10⁻² mmol/kg, whereas for the products to be tested the used dosage was between 1x10⁻² and 12x10⁻² mmol/kg, with an intermediate dosage equimolar with respect to the one of the standards.

Compound | LEARNING Initial avoid. time (sec.) (dose 4.10^-2 mmoli/kg i.p.) | LEARNING Learn-ing time (dose 4.10^-2 mmoli/kg i.p.) [s] | LEARNING Initial avoid. time (sec.) (dose 8.10^-2 mmoli/kg i.p.) | LEARNING Learn-ing time (dose 8.10^-2 mmoli/kg i.p.) [s] | LEARNING Initial avoid. time (sec.) (dose 12.10^-2 mmoli/kg i.p.) | LEARNING Learn-ing time (dose 12.10^-2 mmoli/kg i.p.) [s]
N[C@@H](COP(=O)(O)OC[C@H](O)CO)C(=O)O [GFS, glycerophosphoryl-serine, reference compound] | 2,2 sec. | 110 | – | – | – | –
COC(=O)CN1CCCC[C@H](NC(=O)[C@@H](N)COP(=O)(O)OC[C@H](O)CO)C1=O [MGS 2] | 1,9 sec. | 110 | 2,3 sec. | 110 | 2,1 sec. | 110
O=CN[C@H]1CCCCNC1=O [N-Formylamino ε -caprolactame, N(S)-3-(formyl-amino)-epsilon-caprolactam, reference compound] | 2,1 sec. | 110 | – | – | – | –
N(4-phenylbutanoyl-hydroxy)prolyl-pyrrolidine [Phenyl-butirryl prolyl-pirrolidine, reference compound] | 2,3 sec. | 110 | – | – | – | –
